Results as given in patent US7960129B2, “Assays and methods for determining STIM2 activity” (The Queen's Medical Center, priority 2007, dated 2011).
“Also recorded” adds a separate entry of the source. At least one structure is not confirmed: it was looked up by name or label, or the drawing left a doubt.

Protein sequences, listed by entry. Tags and fused reporters are not part of them. Residues count along the entry.
UniProt Q9P246, 15-746: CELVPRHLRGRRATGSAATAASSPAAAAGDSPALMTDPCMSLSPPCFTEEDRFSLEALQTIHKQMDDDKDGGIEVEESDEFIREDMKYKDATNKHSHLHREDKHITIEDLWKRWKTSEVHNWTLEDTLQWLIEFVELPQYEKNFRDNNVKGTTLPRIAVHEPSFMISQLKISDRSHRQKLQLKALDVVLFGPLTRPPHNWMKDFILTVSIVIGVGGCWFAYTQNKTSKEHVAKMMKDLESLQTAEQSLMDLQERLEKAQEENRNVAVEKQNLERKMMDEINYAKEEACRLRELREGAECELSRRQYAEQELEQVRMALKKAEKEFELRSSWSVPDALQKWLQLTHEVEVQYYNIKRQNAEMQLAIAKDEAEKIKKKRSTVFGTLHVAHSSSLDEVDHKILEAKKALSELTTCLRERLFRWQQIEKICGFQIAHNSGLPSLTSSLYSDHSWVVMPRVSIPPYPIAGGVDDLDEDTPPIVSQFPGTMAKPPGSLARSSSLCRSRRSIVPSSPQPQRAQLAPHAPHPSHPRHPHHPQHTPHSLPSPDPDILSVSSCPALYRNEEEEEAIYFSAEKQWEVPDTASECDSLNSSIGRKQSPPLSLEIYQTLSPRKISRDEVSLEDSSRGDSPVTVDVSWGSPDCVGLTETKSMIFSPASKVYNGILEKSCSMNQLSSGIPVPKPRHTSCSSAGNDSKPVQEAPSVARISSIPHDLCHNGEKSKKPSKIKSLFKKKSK
UniProt Q13586, 23-685: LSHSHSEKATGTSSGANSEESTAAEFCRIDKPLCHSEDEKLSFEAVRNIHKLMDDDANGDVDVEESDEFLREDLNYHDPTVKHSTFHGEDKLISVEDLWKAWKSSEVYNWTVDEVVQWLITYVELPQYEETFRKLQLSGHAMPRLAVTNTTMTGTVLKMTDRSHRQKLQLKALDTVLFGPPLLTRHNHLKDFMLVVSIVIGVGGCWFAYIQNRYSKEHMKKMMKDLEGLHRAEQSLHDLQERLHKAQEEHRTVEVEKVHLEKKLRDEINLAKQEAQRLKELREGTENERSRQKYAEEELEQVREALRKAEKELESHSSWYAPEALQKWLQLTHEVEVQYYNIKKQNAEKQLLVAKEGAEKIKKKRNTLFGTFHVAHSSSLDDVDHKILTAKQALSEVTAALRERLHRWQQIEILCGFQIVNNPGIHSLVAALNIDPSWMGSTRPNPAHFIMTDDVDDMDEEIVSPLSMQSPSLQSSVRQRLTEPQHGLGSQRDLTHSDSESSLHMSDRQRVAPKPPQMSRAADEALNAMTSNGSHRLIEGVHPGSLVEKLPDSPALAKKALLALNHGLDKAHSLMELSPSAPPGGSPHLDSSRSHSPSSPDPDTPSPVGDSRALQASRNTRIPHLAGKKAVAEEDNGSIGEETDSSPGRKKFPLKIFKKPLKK
UniProt Q96D31, whole entry: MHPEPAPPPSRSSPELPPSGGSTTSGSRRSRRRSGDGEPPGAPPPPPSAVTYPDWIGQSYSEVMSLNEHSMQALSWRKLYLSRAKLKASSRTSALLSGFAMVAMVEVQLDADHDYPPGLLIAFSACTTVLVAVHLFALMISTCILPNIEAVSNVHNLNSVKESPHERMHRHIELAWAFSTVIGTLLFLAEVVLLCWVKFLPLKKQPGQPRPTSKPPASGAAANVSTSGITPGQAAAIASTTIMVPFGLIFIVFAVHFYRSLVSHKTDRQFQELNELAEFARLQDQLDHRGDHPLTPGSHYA

What was measured:
[1] = biological target: T1, STIM2+CRACM1-expressing HEK293 cells (Homo sapiens, UniProt Q9P246); test: Whole-cell patch-clamp of CRAC currents in STIM2+CRACM1 cells; type: cell-based
T1 construct: expressed in transfected cells; host or cells: HEK293
Procedure: Patch-clamp experiments were performed in the tight-seal whole-cell configuration at 21-25° C. High-resolution current recordings were acquired using the EPC-9 (HEKA). Voltage ramps of 50 ms duration spanning a range of −100 to +100 mV were delivered from a holding potential of 0 mV at a rate of 0.5 Hz over a period of 100-700 sec. All voltages were corrected for a liquid junction potential of 10 mV (3 mV with Cl^− as main internal anion). Currents were filtered at 2.9 kHz and digitized at 100 μs intervals. Capacitive currents were determined and corrected before each voltage ramp. Extracting the current amplitude at −80 mV from individual ramp current records assessed the low-resolution temporal development of currents. Where applicable, statistical errors of averaged data are given as means±S.E.M. with n determinations. Standard external solutions were as follows (in mM): 120 NaCl, 10 CsCl, 2.8 KCl, 2 MgCl2, 10 CaCl2, 10 TEA-Cl, 10 HEPES, 10 glucose, pH 7.2 with NaOH, 300 mOsm. In some experiments, 2 μM or 50 μM 2-aminoethyldiphenyl borate (2-APB) or 10 μM G418 were added to the standard external solution and applied through wide-tipped puffer pipettes. Standard internal solutions were as follows (in mM): 120 Cs-glutamate, 8 NaCl, 10 Cs-BAPTA, 3 MgCl2, 10 HEPES, 0.02 IP3, pH 7.2 with CsOH, 300 mOsm. […]

[2] = biological target: T2, STIM1+CRACM1-expressing HEK293 cells (Homo sapiens, UniProt Q13586+Q96D31); test: Whole-cell patch-clamp of CRAC currents in STIM1+CRACM1 cells; type: cell-based
T2 construct: expressed in transfected cells; host or cells: HEK293
Procedure: Patch-clamp experiments were performed in the tight-seal whole-cell configuration at 21-25° C. High-resolution current recordings were acquired using the EPC-9 (HEKA). […] Currents were filtered at 2.9 kHz and digitized at 100 μs intervals. Capacitive currents were determined and corrected before each voltage ramp. Extracting the current amplitude at −80 mV from individual ramp current records assessed the low-resolution temporal development of currents. […] All chemicals were purchased from Sigma-Aldrich Co.

**Q.** What does the source list for `CN[C@@H]1[C@@H](O)[C@@H](O[C@@H]2[C@@H](O)[C@H](O[C@H]3O[C@H]([C@@H](C)O)[C@@H](O)[C@H](O)[C@H]3N)[C@@H](N)C[C@H]2N)OC[C@]1(C)O` [G418]?
**A.** effect of extracellular G418 on CRAC current ([1]; 10 μM G418 from the extracellular side): some inhibition; Hill coefficient of G418 dose-response curve ([1]; G418 in the pipette, 20 μM IP3, extracted at 300 s): 1; effect of extracellular G418 on CRAC current ([2]; 300 nM, 1 μM and 10 μM G418 extracellular, cells grown without G418, 20 μM IP3): small and reversible reduction; effect of extracellular G418 on CRAC current ([2]; 10 μM G418 extracellular, cells grown in the presence of G418): small and reversible reduction; also recorded: some inhibition; effect of intracellular G418 on IP3-induced CRAC currents ([2]; 10 μM G418 perfused intracellularly (pipette), 20 μM IP3): largely insensitive; also recorded: did not modify
